# This is one part of the list.
# Experiments:
# Assay in all cases: glycan array binding signal (z-score within array); higher = stronger binding
# Conditions in all cases: glycan notation: IUPAC condensed, linker removed
# [1] = target: Fuc(a1-2)Gal6S(b1-3)GlcNAc6S
# Procedure, shortened: (§1)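 The binding signal is a Z-score computed within each array. Data were drawn from 3228 arrays in the Consortium for Functional Glycomics database, restricted to those with a known protein sequence. Scores were averaged over arrays of the same protein sequence at different concentrations or buffers, and over linkers, and negative values can be taken as non-binding.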
# Fuc(a1-2)Gal6S(b1-4)Glc = target: Fuc(a1-2)Gal6S(b1-4)Glc
# Procedure, shortened: as §1
# [2] = target: Fuc(a1-2)Gal6S(b1-4)Glc6S
# Procedure, shortened: as §1
# Fuc(a1-2)[Gal(a1-3)]Gal = target: Fuc(a1-2)[Gal(a1-3)]Gal
# Procedure, shortened: as §1
# [3] = target: Fuc(a1-2)[Gal(a1-3)]Gal(b1-3)GalNAc
# Procedure, shortened: as §1
# [4] = target: Fuc(a1-2)[Gal(a1-3)]Gal(b1-3)GalNAc(b1-3)Gal(a1-4)Gal(b1-4)Glc
# Procedure, shortened: as §1
# [5] = target: Fuc(a1-2)[Gal(a1-3)]Gal(b1-3)GlcNAc
# Procedure, shortened: as §1
# [6] = target: Fuc(a1-2)[Gal(a1-3)]Gal(b1-3)GlcNAc(b1-2)Man(a1-3)[Fuc(a1-2)[Gal(a1-3)]Gal(b1-3)GlcNAc(b1-2)Man(a1-6)]Man(b1-4)GlcNAc(b1-4)GlcNAc
# Procedure, shortened: as §1
# [7] = target: Fuc(a1-2)[Gal(a1-3)]Gal(b1-3)GlcNAc(b1-2)Man(a1-3)[Fuc(a1-2)[Gal(a1-3)]Gal(b1-3)GlcNAc(b1-2)Man(a1-6)]Man(b1-4)GlcNAc(b1-4)[Fuc(a1-6)]GlcNAc
# Procedure, shortened: as §1
# [8] = target: Fuc(a1-2)[Gal(a1-3)]Gal(b1-3)GlcNAc(b1-3)GalNAc
# Procedure, shortened: as §1
# [9] = target: Fuc(a1-2)[Gal(a1-3)]Gal(b1-3)GlcNAc(b1-6)GalNAc
# Procedure, shortened: as §1
# [10] = target: Fuc(a1-2)[Gal(a1-3)]Gal(b1-4)Glc
# Procedure, shortened: as §1
# [11] = target: Fuc(a1-2)[Gal(a1-3)]Gal(b1-4)GlcNAc
# Procedure, shortened: as §1
# [12] = target: Fuc(a1-2)[Gal(a1-3)]Gal(b1-4)GlcNAc(b1-2)Man
# Procedure, shortened: as §1
# [13] = target: Fuc(a1-2)[Gal(a1-3)]Gal(b1-4)GlcNAc(b1-2)Man(a1-3)[Fuc(a1-2)[Gal(a1-3)]Gal(b1-4)GlcNAc(b1-2)Man(a1-6)]Man(b1-4)GlcNAc(b1-4)GlcNAc
# Procedure, shortened: as §1
# [14] = target: Fuc(a1-2)[Gal(a1-3)]Gal(b1-4)GlcNAc(b1-2)Man(a1-3)[Fuc(a1-2)[Gal(a1-3)]Gal(b1-4)GlcNAc(b1-2)Man(a1-6)]Man(b1-4)GlcNAc(b1-4)[Fuc(a1-6)]GlcNAc
# Procedure, shortened: as §1
# [15] = target: Fuc(a1-2)[Gal(a1-3)]Gal(b1-4)GlcNAc(b1-3)GalNAc
# Procedure, shortened: as §1
# [16] = target: Fuc(a1-2)[Gal(a1-3)]Gal(b1-4)GlcNAc(b1-3)[Fuc(a1-2)[Gal(a1-3)]Gal(b1-4)GlcNAc(b1-6)]GalNAc
# Procedure, shortened: as §1
# [17] = target: Fuc(a1-2)[Gal(a1-3)]Gal(b1-4)GlcNAc(b1-6)GalNAc
# Procedure, shortened: as §1
# [18] = target: Fuc(a1-2)[Gal(a1-3)]Gal(b1-4)[Fuc(a1-3)]Glc
# Procedure, shortened: as §1
# [19] = target: Fuc(a1-2)[Gal(a1-3)]Gal(b1-4)[Fuc(a1-3)]GlcNAc
# Procedure, shortened: as §1
# [20] = target: Fuc(a1-2)[Gal(a1-3)]Gal(b1-4)[Fuc(a1-3)]GlcNAc(b1-3)GalNAc
# Procedure, shortened: as §1
# [21] = target: Fuc(a1-2)[Gal(a1-4)]Gal(b1-4)GlcNAc
# Procedure, shortened: as §1
# [22] = target: Fuc(a1-2)[GalNAc(a1-3)]Gal
# Procedure, shortened: as §1
# [23] = target: Fuc(a1-2)[GalNAc(a1-3)]Gal(b1-3)GalNAc(a1-3)[Fuc(a1-2)]Gal(b1-4)GlcNAc
# Procedure, shortened: as §1
# [24] = target: Fuc(a1-2)[GalNAc(a1-3)]Gal(b1-3)GalNAc(b1-3)Gal(a1-4)Gal(b1-4)Glc
# Procedure, shortened: as §1
# [25] = target: Fuc(a1-2)[GalNAc(a1-3)]Gal(b1-3)GlcNAc
# Procedure, shortened: as §1
# [26] = target: Fuc(a1-2)[GalNAc(a1-3)]Gal(b1-3)GlcNAc(b1-2)Man(a1-3)[Fuc(a1-2)[GalNAc(a1-3)]Gal(b1-3)GlcNAc(b1-2)Man(a1-6)]Man(b1-4)GlcNAc(b1-4)GlcNAc
# Procedure, shortened: as §1
# [27] = target: Fuc(a1-2)[GalNAc(a1-3)]Gal(b1-3)GlcNAc(b1-2)Man(a1-3)[Fuc(a1-2)[GalNAc(a1-3)]Gal(b1-3)GlcNAc(b1-2)Man(a1-6)]Man(b1-4)GlcNAc(b1-4)[Fuc(a1-6)]GlcNAc
# Procedure, shortened: as §1
# [28] = target: Fuc(a1-2)[GalNAc(a1-3)]Gal(b1-3)GlcNAc(b1-3)GalNAc
# Procedure, shortened: as §1
# [29] = target: Fuc(a1-2)[GalNAc(a1-3)]Gal(b1-3)GlcNAc(b1-6)GalNAc
# Procedure, shortened: as §1
# [30] = target: Fuc(a1-2)[GalNAc(a1-3)]Gal(b1-4)Glc
# Procedure, shortened: as §1
# [31] = target: Fuc(a1-2)[GalNAc(a1-3)]Gal(b1-4)GlcNAc
# Procedure, shortened: as §1
# [32] = target: Fuc(a1-2)[GalNAc(a1-3)]Gal(b1-4)GlcNAc(b1-2)Man
# Procedure, shortened: as §1
# [33] = target: Fuc(a1-2)[GalNAc(a1-3)]Gal(b1-4)GlcNAc(b1-2)Man(a1-3)[Fuc(a1-2)[GalNAc(a1-3)]Gal(b1-4)GlcNAc(b1-2)Man(a1-6)]Man(b1-4)GlcNAc(b1-4)GlcNAc
# Procedure, shortened: as §1
# [34] = target: Fuc(a1-2)[GalNAc(a1-3)]Gal(b1-4)GlcNAc(b1-2)Man(a1-3)[Fuc(a1-2)[GalNAc(a1-3)]Gal(b1-4)GlcNAc(b1-2)Man(a1-6)]Man(b1-4)GlcNAc(b1-4)[Fuc(a1-6)]GlcNAc
# Procedure, shortened: as §1
# [35] = target: Fuc(a1-2)[GalNAc(a1-3)]Gal(b1-4)GlcNAc(b1-3)Gal(b1-4)GlcNAc
# Procedure, shortened: as §1
# [36] = target: Fuc(a1-2)[GalNAc(a1-3)]Gal(b1-4)GlcNAc(b1-3)Gal(b1-4)GlcNAc(b1-3)Gal(b1-4)GlcNAc
# Procedure, shortened: as §1
# [37] = target: Fuc(a1-2)[GalNAc(a1-3)]Gal(b1-4)GlcNAc(b1-3)GalNAc
# Procedure, shortened: as §1
# [38] = target: Fuc(a1-2)[GalNAc(a1-3)]Gal(b1-4)GlcNAc(b1-3)[Fuc(a1-2)[GalNAc(a1-3)]Gal(b1-4)GlcNAc(b1-6)]GalNAc
# Procedure, shortened: as §1
# [39] = target: Fuc(a1-2)[GalNAc(a1-3)]Gal(b1-4)GlcNAc(b1-6)GalNAc
# Procedure, shortened: as §1
# [40] = target: Fuc(a1-2)[GalNAc(a1-3)]Gal(b1-4)[Fuc(a1-3)]GlcNAc
# Procedure, shortened: as §1
# [41] = target: Fuc(a1-2)[GalNAc(a1-3)]Gal(b1-4)[Fuc(a1-3)]GlcNAc(b1-3)GalNAc
# Procedure, shortened: as §1
# [42] = target: Fuc(a1-2)[GalNAc(a1-4)]Gal(b1-4)GlcNAc
# Procedure, shortened: as §1
# [43] = target: Fuc(a1-2)[GalNAc(b1-3)]Gal
# Procedure, shortened: as §1
binder,measurement,setting,value
PX15642A-pgi-501-20-501 (Parabacteroides gingivalis) (protein) CELDRDPEGKDFQQPYTSFVQTKQNRDGLYALLRNTENPRMHFYQELQSDMYCTTITDGNSLAPFVNWDLGILNDHGRADEDEVSGIAGYYFVYNRLNQQANAFVNNTEAALQNQVYKNSTEIANAKSFLAEGKVLQALAIWRLMDRFSFHESVTEVNSGAKDLGVILLKEYNPGYIGPRATKAQCYDYILSRLSEAIEVLPENRESVLYVSRDYAYALRARIYLALGEYGKAAADAKMVVDKYPLIGAADASEFENIYRSDANNPEIIFRGFASATLGSFTATTLNGAAPAGKDIKYNPSAVPFQWVVDLYENEDFRKSVYIAKVVKKDKGYLVNKFLEDKAYRDVQDKPNLKVGARYFSVAEVYLILVESALQTGDTPTAEKYLKALSKARGAEVSVVNMEALQAERTRELIGEGSRLRDMVRWSIPNNHDAFETQPGLEGFANTTPLKAQAPVGFYAYTWEFPQRDRQTNPQLIKNWPI,glycan array binding signal (z-score),[1],1.84
same,glycan array binding signal (z-score),Fuc(a1-2)Gal6S(b1-4)Glc,-0.623
same,glycan array binding signal (z-score),[2],-0.092
same,glycan array binding signal (z-score),Fuc(a1-2)[Gal(a1-3)]Gal,-0.188
same,glycan array binding signal (z-score),[3],-0.291
same,glycan array binding signal (z-score),[4],-0.013
same,glycan array binding signal (z-score),[5],-0.015
same,glycan array binding signal (z-score),[6],1.53
same,glycan array binding signal (z-score),[7],0.149
same,glycan array binding signal (z-score),[8],-1.06
same,glycan array binding signal (z-score),[9],-0.359
same,glycan array binding signal (z-score),[10],-0.405
same,glycan array binding signal (z-score),[11],1.03
same,glycan array binding signal (z-score),[12],-0.144
same,glycan array binding signal (z-score),[13],0.849
same,glycan array binding signal (z-score),[14],0.097
same,glycan array binding signal (z-score),[15],1.21
same,glycan array binding signal (z-score),[16],0.225
same,glycan array binding signal (z-score),[17],1.03
same,glycan array binding signal (z-score),[18],-0.368
same,glycan array binding signal (z-score),[19],-0.478
same,glycan array binding signal (z-score),[20],-0.679
same,glycan array binding signal (z-score),[21],-0.568
same,glycan array binding signal (z-score),[22],-0.376
same,glycan array binding signal (z-score),[23],-0.538
same,glycan array binding signal (z-score),[24],-0.132
same,glycan array binding signal (z-score),[25],-0.172
same,glycan array binding signal (z-score),[26],0.836
same,glycan array binding signal (z-score),[27],-0.3
same,glycan array binding signal (z-score),[28],0.405
same,glycan array binding signal (z-score),[29],0.189
same,glycan array binding signal (z-score),[30],-0.238
same,glycan array binding signal (z-score),[31],0.107
same,glycan array binding signal (z-score),[32],-0.848
same,glycan array binding signal (z-score),[33],0.43
same,glycan array binding signal (z-score),[34],-1.03
same,glycan array binding signal (z-score),[35],-0.401
same,glycan array binding signal (z-score),[36],0.25
same,glycan array binding signal (z-score),[37],-0.574
same,glycan array binding signal (z-score),[38],-0.728
same,glycan array binding signal (z-score),[39],-0.399
same,glycan array binding signal (z-score),[40],0.056
same,glycan array binding signal (z-score),[41],1.34
same,glycan array binding signal (z-score),[42],-0.172
same,glycan array binding signal (z-score),[43],0.871

# Reformatted: entries from further up
binder	measurement	setting	value
PX15642A-pgi-501-20-501 (Parabacteroides gingivalis) (protein) CELDRDPEGKDFQQPYTSFVQTKQNRDGLYALLRNTENPRMHFYQELQSDMYCTTITDGNSLAPFVNWDLGILNDHGRADEDEVSGIAGYYFVYNRLNQQANAFVNNTEAALQNQVYKNSTEIANAKSFLAEGKVLQALAIWRLMDRFSFHESVTEVNSGAKDLGVILLKEYNPGYIGPRATKAQCYDYILSRLSEAIEVLPENRESVLYVSRDYAYALRARIYLALGEYGKAAADAKMVVDKYPLIGAADASEFENIYRSDANNPEIIFRGFASATLGSFTATTLNGAAPAGKDIKYNPSAVPFQWVVDLYENEDFRKSVYIAKVVKKDKGYLVNKFLEDKAYRDVQDKPNLKVGARYFSVAEVYLILVESALQTGDTPTAEKYLKALSKARGAEVSVVNMEALQAERTRELIGEGSRLRDMVRWSIPNNHDAFETQPGLEGFANTTPLKAQAPVGFYAYTWEFPQRDRQTNPQLIKNWPI	glycan array binding signal (z-score)	[28]	0.405
same	glycan array binding signal (z-score)	[29]	0.189
same	glycan array binding signal (z-score)	[30]	-0.238
same	glycan array binding signal (z-score)	[31]	0.107
same	glycan array binding signal (z-score)	[32]	-0.848
same	glycan array binding signal (z-score)	[33]	0.43
same	glycan array binding signal (z-score)	[34]	-1.03
same	glycan array binding signal (z-score)	[35]	-0.401
same	glycan array binding signal (z-score)	[36]	0.25
same	glycan array binding signal (z-score)	[37]	-0.574
same	glycan array binding signal (z-score)	[38]	-0.728
same	glycan array binding signal (z-score)	[39]	-0.399
same	glycan array binding signal (z-score)	[40]	0.056
